This is one part of the list.
Assays:
Assay in all cases: log2 fold change, soluble protein after heating vs DMSO (PISA); higher = thermal stabilisation; K562 cells, 10 uM, 30 min; active = over 0.2 and 3.5 SD of the protein, either way, in both replicates (recomputed)
[1] = compound: COC1=CC=C(C=C1)CN2C=CC3=C2C=C(C=C3)C(=O)NO
In short: (§1)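 K562 cells at 2×10^6 cells/mL were exposed to 10 μM compound for 30 min, then aliquots were heated for 3 min across 48°C-58°C, pooled, and extracted in PBS containing 0.5% NP-40 at 4°C. The supernatant after 21,000xg for 90 min was taken as soluble protein and measured by TMTpro 16plex LC-MS/MS with channel sums equalised. Thermal stability is reported relative to control samples, with values from duplicates. Fold changes are given on a log2 scale.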

Protein sequences, listed by entry. Tags and fused reporters are not part of them. Lines headed by an entry give the natural chain unless they say otherwise; changes in a name come on top.
UniProt Q6NUS6: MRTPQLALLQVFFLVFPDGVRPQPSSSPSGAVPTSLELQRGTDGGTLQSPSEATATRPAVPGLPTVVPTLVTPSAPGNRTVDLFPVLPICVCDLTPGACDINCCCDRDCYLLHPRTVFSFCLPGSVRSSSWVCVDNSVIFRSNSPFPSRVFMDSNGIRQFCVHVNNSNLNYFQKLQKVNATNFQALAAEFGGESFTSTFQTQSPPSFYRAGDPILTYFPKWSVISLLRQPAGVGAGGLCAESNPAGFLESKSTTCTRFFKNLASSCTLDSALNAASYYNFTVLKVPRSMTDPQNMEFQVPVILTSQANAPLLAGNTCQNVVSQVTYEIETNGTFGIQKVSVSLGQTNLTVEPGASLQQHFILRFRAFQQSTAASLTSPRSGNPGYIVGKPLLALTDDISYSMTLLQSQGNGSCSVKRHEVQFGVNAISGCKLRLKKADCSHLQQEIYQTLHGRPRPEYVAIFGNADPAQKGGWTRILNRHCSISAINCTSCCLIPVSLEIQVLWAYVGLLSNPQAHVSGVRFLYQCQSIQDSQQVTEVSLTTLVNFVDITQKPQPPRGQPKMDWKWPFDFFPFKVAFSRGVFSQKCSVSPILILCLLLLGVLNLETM
UniProt Q9NYB0: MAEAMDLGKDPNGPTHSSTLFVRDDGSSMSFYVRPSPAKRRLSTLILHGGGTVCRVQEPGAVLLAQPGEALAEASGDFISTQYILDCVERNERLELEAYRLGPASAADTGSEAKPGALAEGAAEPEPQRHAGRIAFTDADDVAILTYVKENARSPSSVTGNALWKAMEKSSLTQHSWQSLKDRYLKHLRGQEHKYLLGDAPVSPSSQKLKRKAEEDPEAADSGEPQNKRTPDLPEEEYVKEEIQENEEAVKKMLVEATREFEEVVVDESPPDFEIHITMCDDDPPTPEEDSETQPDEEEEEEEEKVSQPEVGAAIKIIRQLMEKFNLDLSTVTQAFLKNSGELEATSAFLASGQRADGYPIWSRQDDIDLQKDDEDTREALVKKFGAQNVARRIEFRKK
UniProt Q96CG3: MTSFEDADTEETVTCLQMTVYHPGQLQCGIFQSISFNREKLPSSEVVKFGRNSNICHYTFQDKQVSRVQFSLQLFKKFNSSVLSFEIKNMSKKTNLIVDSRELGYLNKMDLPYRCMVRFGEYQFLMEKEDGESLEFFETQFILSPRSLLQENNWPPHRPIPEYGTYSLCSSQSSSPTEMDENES
UniProt Q13428: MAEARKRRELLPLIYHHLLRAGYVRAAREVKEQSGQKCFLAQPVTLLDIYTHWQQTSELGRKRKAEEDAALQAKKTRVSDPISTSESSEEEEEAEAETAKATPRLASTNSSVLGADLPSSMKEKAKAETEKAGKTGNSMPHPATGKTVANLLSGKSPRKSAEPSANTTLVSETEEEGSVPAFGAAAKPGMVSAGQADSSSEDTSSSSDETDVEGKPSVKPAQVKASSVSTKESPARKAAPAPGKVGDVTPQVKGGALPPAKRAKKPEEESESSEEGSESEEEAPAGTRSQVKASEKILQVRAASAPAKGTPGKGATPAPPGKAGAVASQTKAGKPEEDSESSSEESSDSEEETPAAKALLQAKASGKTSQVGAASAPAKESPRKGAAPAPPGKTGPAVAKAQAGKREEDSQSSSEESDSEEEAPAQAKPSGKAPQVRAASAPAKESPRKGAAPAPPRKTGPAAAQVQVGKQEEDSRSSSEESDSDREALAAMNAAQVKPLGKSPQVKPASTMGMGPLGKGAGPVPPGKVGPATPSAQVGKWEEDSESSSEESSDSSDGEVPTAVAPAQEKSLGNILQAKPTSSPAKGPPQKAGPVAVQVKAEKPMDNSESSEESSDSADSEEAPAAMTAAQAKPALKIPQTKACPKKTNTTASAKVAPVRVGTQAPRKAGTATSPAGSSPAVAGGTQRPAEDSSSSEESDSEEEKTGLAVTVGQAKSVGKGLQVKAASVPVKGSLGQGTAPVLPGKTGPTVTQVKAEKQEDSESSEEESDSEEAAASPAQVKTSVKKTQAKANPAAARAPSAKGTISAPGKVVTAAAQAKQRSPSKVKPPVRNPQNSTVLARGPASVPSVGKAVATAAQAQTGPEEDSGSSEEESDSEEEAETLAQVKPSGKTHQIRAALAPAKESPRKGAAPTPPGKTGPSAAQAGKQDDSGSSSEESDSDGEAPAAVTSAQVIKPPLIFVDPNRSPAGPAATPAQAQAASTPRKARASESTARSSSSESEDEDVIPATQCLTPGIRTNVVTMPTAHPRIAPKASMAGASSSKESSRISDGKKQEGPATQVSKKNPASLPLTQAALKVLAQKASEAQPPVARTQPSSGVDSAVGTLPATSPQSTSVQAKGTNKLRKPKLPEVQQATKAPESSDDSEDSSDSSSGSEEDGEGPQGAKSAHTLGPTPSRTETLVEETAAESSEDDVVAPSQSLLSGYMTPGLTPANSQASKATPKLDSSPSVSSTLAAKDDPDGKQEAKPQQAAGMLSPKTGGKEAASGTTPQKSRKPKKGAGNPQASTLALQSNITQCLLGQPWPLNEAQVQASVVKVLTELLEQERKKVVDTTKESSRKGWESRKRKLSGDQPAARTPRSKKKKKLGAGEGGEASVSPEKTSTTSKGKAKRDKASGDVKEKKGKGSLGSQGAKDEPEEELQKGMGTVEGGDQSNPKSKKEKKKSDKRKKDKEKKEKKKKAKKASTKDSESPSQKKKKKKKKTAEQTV
UniProt Q13488, whole entry, looked up: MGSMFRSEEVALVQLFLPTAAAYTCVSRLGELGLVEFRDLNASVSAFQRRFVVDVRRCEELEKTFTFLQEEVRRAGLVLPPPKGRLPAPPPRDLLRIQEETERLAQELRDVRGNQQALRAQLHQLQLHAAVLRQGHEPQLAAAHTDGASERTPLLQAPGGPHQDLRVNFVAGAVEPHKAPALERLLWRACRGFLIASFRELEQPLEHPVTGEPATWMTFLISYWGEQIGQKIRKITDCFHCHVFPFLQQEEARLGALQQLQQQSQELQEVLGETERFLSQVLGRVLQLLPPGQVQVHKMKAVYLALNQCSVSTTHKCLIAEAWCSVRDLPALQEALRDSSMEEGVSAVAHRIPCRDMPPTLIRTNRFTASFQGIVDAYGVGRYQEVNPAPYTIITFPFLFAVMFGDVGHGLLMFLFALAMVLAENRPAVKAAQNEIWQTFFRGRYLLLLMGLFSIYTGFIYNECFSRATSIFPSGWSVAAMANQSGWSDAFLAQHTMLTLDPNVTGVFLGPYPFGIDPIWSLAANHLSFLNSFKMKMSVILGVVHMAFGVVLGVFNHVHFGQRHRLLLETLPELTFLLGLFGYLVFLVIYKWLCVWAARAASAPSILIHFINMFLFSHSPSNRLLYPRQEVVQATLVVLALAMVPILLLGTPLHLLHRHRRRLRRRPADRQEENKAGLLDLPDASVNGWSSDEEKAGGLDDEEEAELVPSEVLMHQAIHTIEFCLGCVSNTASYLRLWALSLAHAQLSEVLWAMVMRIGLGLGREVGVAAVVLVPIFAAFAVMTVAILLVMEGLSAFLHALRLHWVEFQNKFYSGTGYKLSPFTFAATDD
UniProt Q8NHU6: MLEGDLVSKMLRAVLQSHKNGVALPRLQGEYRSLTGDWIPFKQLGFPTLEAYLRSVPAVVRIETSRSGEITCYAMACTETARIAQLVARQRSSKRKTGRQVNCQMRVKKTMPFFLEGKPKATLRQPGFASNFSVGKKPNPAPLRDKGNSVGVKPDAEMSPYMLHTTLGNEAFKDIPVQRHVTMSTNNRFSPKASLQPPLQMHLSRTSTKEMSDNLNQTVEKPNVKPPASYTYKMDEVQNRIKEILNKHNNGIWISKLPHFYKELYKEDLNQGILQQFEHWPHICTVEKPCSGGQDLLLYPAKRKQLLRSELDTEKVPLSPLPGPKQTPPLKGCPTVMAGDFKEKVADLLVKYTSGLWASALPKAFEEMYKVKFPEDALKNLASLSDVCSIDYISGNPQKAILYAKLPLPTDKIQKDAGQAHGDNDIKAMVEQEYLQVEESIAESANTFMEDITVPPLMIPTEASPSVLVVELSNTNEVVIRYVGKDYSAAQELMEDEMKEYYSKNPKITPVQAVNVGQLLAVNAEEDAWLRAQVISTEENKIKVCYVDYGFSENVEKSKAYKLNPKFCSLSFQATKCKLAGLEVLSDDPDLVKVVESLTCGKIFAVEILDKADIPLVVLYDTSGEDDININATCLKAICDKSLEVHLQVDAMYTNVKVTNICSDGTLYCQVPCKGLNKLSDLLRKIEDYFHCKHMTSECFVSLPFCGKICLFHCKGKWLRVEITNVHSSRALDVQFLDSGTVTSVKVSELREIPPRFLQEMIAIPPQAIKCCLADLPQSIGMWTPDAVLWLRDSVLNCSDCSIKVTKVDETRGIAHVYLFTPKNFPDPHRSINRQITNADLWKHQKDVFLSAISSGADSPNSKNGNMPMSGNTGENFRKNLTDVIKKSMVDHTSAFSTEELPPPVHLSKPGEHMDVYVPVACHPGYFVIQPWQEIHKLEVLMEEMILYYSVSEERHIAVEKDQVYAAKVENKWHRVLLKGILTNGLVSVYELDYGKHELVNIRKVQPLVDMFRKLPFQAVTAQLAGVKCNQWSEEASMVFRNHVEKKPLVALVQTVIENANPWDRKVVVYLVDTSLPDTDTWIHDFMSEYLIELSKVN
UniProt Q15170: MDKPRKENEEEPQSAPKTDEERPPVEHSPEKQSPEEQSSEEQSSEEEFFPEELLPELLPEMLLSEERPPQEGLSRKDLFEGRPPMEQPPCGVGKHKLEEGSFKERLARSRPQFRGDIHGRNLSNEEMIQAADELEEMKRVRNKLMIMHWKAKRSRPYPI
UniProt P10646, whole entry, looked up: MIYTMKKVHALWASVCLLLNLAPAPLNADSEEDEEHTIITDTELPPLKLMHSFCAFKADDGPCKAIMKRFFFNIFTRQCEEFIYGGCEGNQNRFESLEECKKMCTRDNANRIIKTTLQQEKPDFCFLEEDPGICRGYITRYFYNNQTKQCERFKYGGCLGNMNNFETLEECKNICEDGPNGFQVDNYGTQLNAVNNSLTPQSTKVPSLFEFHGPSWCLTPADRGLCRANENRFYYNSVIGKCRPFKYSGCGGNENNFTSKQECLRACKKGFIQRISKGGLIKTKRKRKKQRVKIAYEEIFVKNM
UniProt Q00059: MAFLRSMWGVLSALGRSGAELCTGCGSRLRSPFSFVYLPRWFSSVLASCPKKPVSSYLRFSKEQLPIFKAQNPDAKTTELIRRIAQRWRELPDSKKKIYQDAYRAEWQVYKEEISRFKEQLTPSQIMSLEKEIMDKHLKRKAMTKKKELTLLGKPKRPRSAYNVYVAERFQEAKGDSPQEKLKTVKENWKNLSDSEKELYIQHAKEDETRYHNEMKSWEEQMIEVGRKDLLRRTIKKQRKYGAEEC
UniProt O14776: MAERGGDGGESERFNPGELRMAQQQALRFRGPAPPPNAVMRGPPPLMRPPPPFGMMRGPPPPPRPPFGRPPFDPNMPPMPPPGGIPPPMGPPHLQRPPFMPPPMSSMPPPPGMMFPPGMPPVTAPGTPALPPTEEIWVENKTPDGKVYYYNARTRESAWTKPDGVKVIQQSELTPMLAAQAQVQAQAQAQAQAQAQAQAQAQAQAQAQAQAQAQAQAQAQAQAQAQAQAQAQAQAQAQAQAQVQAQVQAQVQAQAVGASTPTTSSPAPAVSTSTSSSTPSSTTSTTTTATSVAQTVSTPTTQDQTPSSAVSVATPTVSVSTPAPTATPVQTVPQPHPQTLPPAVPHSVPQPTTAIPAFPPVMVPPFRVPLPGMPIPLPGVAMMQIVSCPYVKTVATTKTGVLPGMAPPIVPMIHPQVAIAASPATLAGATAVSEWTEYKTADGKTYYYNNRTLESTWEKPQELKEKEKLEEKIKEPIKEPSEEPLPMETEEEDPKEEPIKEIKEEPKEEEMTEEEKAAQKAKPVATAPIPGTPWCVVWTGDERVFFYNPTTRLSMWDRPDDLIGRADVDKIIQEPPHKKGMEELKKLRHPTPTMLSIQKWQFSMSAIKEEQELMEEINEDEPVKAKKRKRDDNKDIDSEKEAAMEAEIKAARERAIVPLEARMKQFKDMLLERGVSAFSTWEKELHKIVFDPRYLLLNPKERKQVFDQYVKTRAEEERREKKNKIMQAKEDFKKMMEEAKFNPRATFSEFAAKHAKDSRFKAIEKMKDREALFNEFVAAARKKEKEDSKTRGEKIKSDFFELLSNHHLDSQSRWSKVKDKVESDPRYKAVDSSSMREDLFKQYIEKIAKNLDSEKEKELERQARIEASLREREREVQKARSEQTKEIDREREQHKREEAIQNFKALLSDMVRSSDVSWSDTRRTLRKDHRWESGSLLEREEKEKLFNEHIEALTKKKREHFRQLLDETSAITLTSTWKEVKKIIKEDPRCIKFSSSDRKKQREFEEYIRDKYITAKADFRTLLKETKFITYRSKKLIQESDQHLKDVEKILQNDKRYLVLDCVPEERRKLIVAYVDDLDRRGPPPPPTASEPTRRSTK

[2] = compound: CON(C)C(=O)N1N=C(c2cc(F)ccc2F)S[C@@]1(CCCN)c1ccccc1 [filanesib]
In short: as §1

[3] = compound: CO[C@H]1C[C@@H]2CC[C@@H](C)[C@@](O)(O2)C(=O)C(=O)N2CCCC[C@H]2C(=O)O[C@H]([C@H](C)C[C@@H]2CC[C@H](n3cnnn3)[C@H](OC)C2)CC(=O)[C@H](C)/C=C(\C)[C@@H](O)[C@@H](OC)C(=O)[C@H](C)C[C@H](C)/C=C/C=C/C=C/1C [zotarolimus]
In short: as §1

[4] = compound: COc1cc(C(=O)O)ccc1NC(=O)[C@@H]1N[C@@H](CC(C)(C)C)[C@](C#N)(c2ccc(Cl)cc2F)[C@H]1c1cccc(Cl)c1F [idasanutlin]
In short: as §1

[5] = compound: COc1cc(Nc2ncc3c(n2)-c2ccc(Cl)cc2C(c2c(F)cccc2OC)=NC3)ccc1C(=O)O [alisertib]
In short: as §1

[6] = compound: COc1cc2nc(-c3cc(F)ccc3O)nc(N[C@@H]3CNC[C@H]3C(C)(C)O)c2cc1OC
In short: as §1

[7] = compound: COc1cc2ncnc(Nc3ccc(F)c(Cl)c3)c2cc1OCCCN1CCOCC1 [gefitinib]
In short: as §1

[8] = compound: COc1cccc2cc(-c3nc([C@H]4CC[C@H](C(=O)O)CC4)n4ncnc(N)c34)[nH]c12
In short: as §1

[9] = compound: CS(=O)(=O)CCNCc1ccc(-c2ccc3ncnc(Nc4ccc(OCc5cccc(F)c5)c(Cl)c4)c3c2)o1 [lapatinib]
In short: as §1

[10] = compound: CS(=O)(=O)N1CCN(Cc2cc3nc(-c4cccc5[nH]ncc45)nc(N4CCOCC4)c3s2)CC1 [pictilisib]
In short: as §1

[11] = compound: CS(=O)(=O)c1ccc(-c2cnc(N)c(C(=O)Nc3ccccc3)n2)cc1
In short: as §1

[12] = compound: C[C@@H](Oc1cc(-c2cnn(C3CCNCC3)c2)cnc1N)c1c(Cl)ccc(F)c1Cl [crizotinib]
In short: as §1

[13] = compound: C[C@@H]1COCCN1C2=NC(=NC(=C2)C3(CC3)S(=O)(=O)C)C4=C5C=CNC5=CC=C4
In short: as §1

[14] = compound: C[C@H](C1=CC=C(C=C1)C(=O)NC2=C3C=CNC3=NC=C2)N
In short: as §1

[15] = compound: Cc1cc(Nc2cc(CN3CCOCC3)c3nc(C)c(Cc4ccc(Cl)cc4F)n3n2)n[nH]1 [gandotinib]
In short: as §1

[16] = compound: Cc1cc(SCc2sc(-c3ccc(C(F)(F)F)cc3)nc2C)ccc1OCC(=O)O
In short: as §1

[17] = compound: Cc1ccc(-n2nc(C(C)(C)C)cc2NC(=O)Nc2ccc(OCCN3CCOCC3)c3ccccc23)cc1 [doramapimod]
In short: as §1

[18] = compound: Cc1ccc(C(=O)N(CCCN)[C@@H](c2nc3cc(Cl)ccc3c(=O)n2Cc2ccccc2)C(C)C)cc1 [ispinesib]
In short: as §1

[19] = compound: Cc1cc(Nc2cc(N3CCN(C)CC3)nc(Sc3ccc(NC(=O)C4CC4)cc3)n2)n[nH]1 [tozasertib]
In short: as §1

[20] = compound: C[C@H](Nc1ncnc2nc[nH]c12)c1cc2cccc(Cl)c2c(=O)n1-c1ccccc1 [duvelisib]
In short: as §1

Measured: log2 fold change

TFB2M (UniProt Q9H5Q4)
inactive: [1] -0.044 | [2] -0.074 | [3] -0.001 | [4] -0.055 | [5] 0.011 | [6] 0.006 | [7] 0.002 | [8] 0.037 | [9] -0.001 | [10] -0.021 | [11] -0.013 | [12] -0.06 | [13] 0.096 | [14] 0.025 | [15] -0.19 | [16] 0.033 | [17] -0.024 | [18] -0.044

TCTN3 (UniProt Q6NUS6)
inactive: [1] -0.185 | [2] 0.293 | [6] -0.001 | [7] 0.076 | [9] 0.024 | [11] 0.047 | [12] 0.143 | [13] 0.02 | [17] -0.114

TFE3 (UniProt P19532)
inactive: [1] 0.221 | [2] -0.192 | [11] -0.234 | [12] -0.414 | [13] -0.546 | [19] -0.185 | [17] -0.032 | [18] -0.185

TBC1D20 isoform 3 (UniProt Q96BZ9)
inactive: [1] 0.026 | [2] -0.023 | [3] 0.136 | [4] -0.184 | [5] -0.089 | [6] 0.102 | [7] 0.148 | [8] -0.032 | [9] -0.03 | [10] -0.073 | [11] 0.039 | [12] -0.121 | [13] 0.088 | [14] 0.036 | [15] -0.078 | [17] 0.05 | [18] 0.113

TFDP1 (UniProt Q14186)
inactive: [1] -0.031 | [2] -0.074 | [4] -0.027 | [5] -0.027 | [6] 0.037 | [7] -0.011 | [8] -0.035 | [9] 0.017 | [10] 0.021 | [11] 0.045 | [12] 0.075 | [13] -0.066 | [15] -0.035 | [19] -0.049 | [17] -0.069 | [18] -0.078

TERF2IP (UniProt Q9NYB0)
inactive: [1] -0.034 | [2] 0.052 | [3] 0.045 | [4] 0.025 | [5] -0.032 | [6] -0.119 | [7] 0.013 | [8] 0.025 | [9] -0.008 | [10] -0.036 | [11] -0.021 | [12] 0.085 | [13] -0.072 | [14] -0.099 | [15] 0.028 | [16] 0.005 | [17] -0.019 | [18] 0.044

TIFA (UniProt Q96CG3)
inactive: [1] -0.068 | [2] 0.036 | [3] 0.242 | [6] 0.1 | [9] -0.015 | [10] -0.05 | [11] -0.005 | [12] 0.049 | [13] -0.064 | [14] -0.037 | [15] -0.016 | [17] 0.045

TCOF1 isoform 4 (UniProt Q13428)
inactive: [1] 0.002 | [2] 0.028 | [3] -0.011 | [4] 0.092 | [5] -0.061 | [6] -0.051 | [7] -0.01 | [8] -0.002 | [9] 0.017 | [10] 0.028 | [11] -0.008 | [12] -0.053 | [13] 0.021 | [14] -0.016 | [15] 0.042 | [16] -0.047 | [17] 0.013 | [18] -0.01

TBP (UniProt P20226)
inactive: [1] -0.014 | [3] -0.1 | [4] -0.076 | [5] 0.148 | [6] 0.072 | [7] 0.044 | [8] 0.081 | [9] 0.023 | [12] 0.048 | [13] -0.021 | [14] 0.303 | [16] -0.098 | [17] -0.023 | [18] -0.006

TK1 (UniProt P04183)
active: [2] -0.258
inactive: [1] -0.012 | [3] -0.023 | [4] -0.011 | [5] -0.034 | [6] 0.021 | [7] -0.018 | [8] 0.073 | [9] -0.009 | [10] 0.045 | [11] -0.046 | [12] 0.011 | [13] -0.008 | [14] -0.097 | [15] -0.055 | [16] -0.03 | [17] -0.013 | [18] 0.017

TCIRG1 (UniProt Q13488)
inactive: [1] -0.022 | [3] 0.068 | [4] 0.143 | [7] -0.221 | [10] -0.089 | [12] -0.157 | [13] -0.545 | [14] 0.483 | [20] -0.208 | [15] -0.032 | [19] 0.171 | [16] 0.178 | [17] 0.348 | [18] -0.522

TKT, A0A0B4J1R6
inactive: [1] -0.241 | [2] -0.04 | [3] -0.109 | [4] -0.166 | [5] 0.252 | [6] 0.191 | [7] 0.019 | [8] 0.145 | [9] -0.109 | [11] -0.013 | [12] 0.116 | [13] 0.151 | [14] 0.199 | [20] 0.015 | [19] -0.12 | [16] -0.018 | [17] 0.077 | [18] -0.273

TDRD7 (UniProt Q8NHU6)
inactive: [1] 0.035 | [3] -0.065 | [4] 0.119 | [5] 0.152 | [8] -0.028 | [10] 0.069 | [12] 0.105 | [13] 0.749 | [14] 0.001 | [20] 0.23 | [15] -0.054 | [16] -0.096 | [17] -0.057 | [18] 0.034

TCEAL1 isoform 2 (UniProt Q15170)
inactive: [1] 0.022 | [2] 0.277 | [3] -0.234 | [6] 0.149 | [9] 0.051 | [10] 0.013 | [11] -0.007 | [12] 0.034 | [14] -0.053 | [15] 0.045 | [19] -0.028 | [17] -0.371 | [18] 0.026

Fetched one by one from above (two):
TBP (UniProt P20226)
inactive: [1] -0.014 | [3] -0.1 | [4] -0.076 | [5] 0.148 | [6] 0.072 | [7] 0.044 | [8] 0.081 | [9] 0.023 | [12] 0.048 | [13] -0.021 | [14] 0.303 | [16] -0.098 | [17] -0.023 | [18] -0.006

TCIRG1 (UniProt Q13488)
inactive: [1] -0.022 | [3] 0.068 | [4] 0.143 | [7] -0.221 | [10] -0.089 | [12] -0.157 | [13] -0.545 | [14] 0.483 | [20] -0.208 | [15] -0.032 | [19] 0.171 | [16] 0.178 | [17] 0.348 | [18] -0.522

Next results follow:

TGFBRAP1 (UniProt Q8WUH2)
inactive: [1] 0.092 | [2] -0.006 | [3] -0.031 | [4] -0.137 | [5] 0.046 | [6] 0.092 | [7] 0.047 | [8] -0.103 | [9] -0.098 | [10] -0.136 | [11] -0.081 | [12] -0.367 | [13] 0.051 | [14] 0.067 | [15] -0.142 | [16] 0.087 | [17] 0 | [18] -0.221

TFPI (UniProt P10646)
inactive: [1] 0.062 | [2] 0.16 | [3] -0.145 | [5] -0.095 | [7] 0.074 | [8] -0.172 | [10] 0.338 | [11] -0.013 | [12] 0.161 | [13] -0.046 | [14] 0.078 | [20] -0.179 | [15] -0.028 | [19] 0.054 | [16] 0.037 | [17] -0.151 | [18] 0.155

THRAP3 (UniProt Q9Y2W1)
inactive: [1] 0.087 | [2] 0.155 | [3] -0.117 | [4] 0.12 | [5] -0.095 | [6] -0.127 | [7] 0.15 | [8] 0.13 | [9] 0.066 | [10] 0.005 | [11] 0.014 | [12] 0.04 | [13] 0.019 | [14] -0.111 | [15] -0.003 | [16] -0.071 | [17] 0.133 | [18] -0.043

TFAM (UniProt Q00059)
inactive: [1] -0.035 | [2] 0.048 | [3] 0.01 | [4] 0.046 | [5] -0.1 | [6] 0.015 | [7] -0.026 | [8] -0.058 | [9] -0.012 | [10] -0.04 | [11] -0.071 | [12] 0.058 | [13] -0.153 | [14] 0.117 | [15] 0.176 | [16] -0.034 | [17] 0.022 | [18] -0.117

THAP9 (UniProt Q9H5L6)
inactive: [1] 0.434 | [3] -0.139 | [4] 0.008 | [5] -0.068 | [7] -0.142 | [8] 0.011 | [12] -0.004 | [14] -0.105 | [16] -0.245 | [17] 0.041 | [18] -0.21

TIAL1 isoform 2 (UniProt Q01085)
inactive: [1] 0.033 | [2] 0.037 | [3] -0.016 | [4] 0.026 | [5] -0.064 | [6] 0.076 | [7] -0.007 | [8] 0.02 | [9] 0.029 | [10] 0.01 | [11] 0.008 | [12] -0.039 | [13] 0.023 | [14] -0.014 | [15] -0.048 | [16] 0.046 | [17] -0.054 | [18] 0.01

TCERG1 (UniProt O14776)
inactive: [1] 0.104 | [2] -0.008 | [3] 0.025 | [4] -0.087 | [5] 0.043 | [6] 0.054 | [7] 0.073 | [8] -0.003 | [9] -0.036 | [10] 0 | [11] 0.079 | [12] 0.073 | [13] 0.125 | [14] -0.063 | [15] -0.057 | [16] 0.179 | [17] -0.079 | [18] 0.015

— the supplement of paper PMC10849652
